Source: PubChem BioAssay AID504648 (National Center for Advancing Translational Sciences (NCATS), 2011)
In all, about 390,000 compounds went through this assay and about 610 (0.16%) were called active. Inconclusive means that the source gave no clear call. Such entries were picked first, then a sample of the others. Calls follow the shape of the dose curve; as a rule, active = well fitted inhibition curve with a large enough effect; inconclusive = small, poorly fitted or top-dose-only effect, or effect the other way, or another doubt; inactive = no such curve, though single readings can be large or run the other way. Potencies of inconclusive entries are doubtful fits and often do not repeat.

Experiment: Nrf2 qHTS screen for inhibitors: counterscreen for cytotoxicity
Conditions: A549 ARE-Fluc cells, CellTiter-Fluor viability, 18-24 h; activity change, negative = cytotoxicity: at 46 µM (top of the series)
How it was run: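 Cytotoxicity counterscreen: CellTiter-Fluor fluorescence was measured in A549 ARE_Fluc cells after 18-24 h of compound exposure in a concentration series. The subsequent BugLite luminescent read reports ARE-luciferase activity.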
% is scaled to controls: 0 for no effect and ±100 for the full control effect; potency is read from the fitted curve at half-maximal effect.

Row | SMILES | Potency | activity change, negative = cytotoxicity
1 | CCOc1ccc(N(CC(=O)Nc2ccc(C)cc2)S(=O)(=O)c2c(C)[nH]c(=O)[nH]c2=O)cc1 | inconclusive: 32.6 µM [activator, partial curve, poor fit] | 
2 | Cn1c(C(=O)N2CCN(C(=O)c3ccco3)CC2)cc2c(=O)n3ccccc3nc21 | inconclusive: 18.4 µM [activator, single point] | 
3 | CCNC(=O)c1ccc(-n2c(-c3ccccc3)cc3c2CCCCC3)cc1 | inconclusive: 18.4 µM [falling, partial curve, poor fit] | 
4 | COC1=C(C)C(O)=C(C(=O)/C=C/c2ccccc2)C(=O)C1(C)C | inconclusive: 16.4 µM [falling, partial curve, poor fit] | 
5 | CN1CCc2c(sc3nc(SCC(=O)NCc4ccco4)n(-c4ccccc4)c(=O)c23)C1 | inconclusive: 29.1 µM [falling, single point] | 
6 | Cc1ccc(NC(=S)NCc2ccc3c(c2)OCO3)c(C)c1 |  | inactive: -0.612%
7 | CCOC(=O)c1c(C)c(C(=O)Nc2cc(F)ccc2F)c(C)n1C |  | inactive: 11.8%
8 | O=C(CCN1C(=O)/C(=C/c2ccccc2F)SC1=S)NCCCN1CCOCC1 | inconclusive: 25.9 µM [falling, single point] | 
9 | COc1ccc(OCCN2CCN(C(=O)c3ccc(OC(F)F)c(OC)c3)CC2)cc1 |  | inactive: 0.64%
10 | COc1ccc(-c2c(-c3ccc(OC)c(F)c3)c3ccccc3n2C)cc1 | inconclusive: 4.61 µM [activator, full curve] | 
11 | COc1ccc(NC(=O)CN(C)S(=O)(=O)c2ccc3nc(C)sc3c2)cc1 |  | inactive: -4.9%
12 | CC(=O)Nc1cccc(OCC(=O)NS(=O)(=O)c2ccc(Cl)cc2)c1 |  | inactive: -4.94%
13 | COc1ccc(-c2nn(-c3ccccc3)cc2/C=N/NC(N)=S)cc1OC |  | inactive: -13.7%
14 | Cc1ccccc1C(=O)NC(C(=O)Nc1nc2c(s1)CCCC2)C(C)C (centres undefined) |  | inactive: 1.28%
15 | Cn1nccc1C(=O)N(CCN1CCCCC1)CC1CCCN(C2CCCC2)C1 (centres undefined) | inconclusive: 20.6 µM [falling, partial curve, poor fit] | 
16 | CS(=O)(=O)c1ccc(C(=O)OCc2nnc(-c3ccccc3)o2)cc1[N+](=O)[O-] | inconclusive: 29.1 µM [falling, single point] | 
17 | O=C(NCCSCc1ccco1)Nc1ccccc1 | inconclusive: 1.16 µM [falling, single point] | 
18 | CCOc1ccccc1N1CC(c2nc3ccccc3n2CCCCOc2cc(C)ccc2C)CC1=O (centres undefined) | inconclusive: 29.1 µM [falling, single point] | 
19 | Cc1c(C(=O)C(=O)N2c3ccccc3CC2C)c2ccccc2n1C (centres undefined) | inconclusive: 11.6 µM [falling, partial curve] | 

Quoted at random: two compounds from above, in no set order.
Row | SMILES | Potency | activity change, negative = cytotoxicity
2 | Cn1c(C(=O)N2CCN(C(=O)c3ccco3)CC2)cc2c(=O)n3ccccc3nc21 | inconclusive: 18.4 µM [activator, single point] | 
9 | COc1ccc(OCCN2CCN(C(=O)c3ccc(OC(F)F)c(OC)c3)CC2)cc1 |  | inactive: 0.64%
